Experimental data reported in US10335400B2, “Treatment of tauopathies with mGluR5 antagonists” (priority 2014, dated 2019).

Tested on: PP2Ac
Experiment: PP2A regulatory factors (pTyr307-PP2Ac, demethylated Leu309, I1PP2A, I2PP2A) by Western blots in rat brain slices
Assay type: cell-based
Settings: BMAA-treated rat brain slices (1 mM, 2 h)
Protocol: Male Wistar rats (Charles River Laboratories), 2-3 months old, were anesthetized by i.p. injection with 50 mg/kg Nembutal. The animals were decapitated when deeply anesthetized. The brains were removed immediately and cooled in ice-cold (4° C.) oxygenated artificial cerebrospinal fluid (aCSF) consisting of 126 mM NaCl, 3.5 mM KCl, 1.2 mM NaH2PO4, 1.3 mM MgCl2, 2 mM CaCl2, 11 mM D(+) glucose, and 25 mM NaHCO3 (pH 7.4) for 7-8 min. Each brain then was divided sagittally, and 400-μm-thick coronal slices were made with a Camden Vibraslicer (WP, Inc.). The slices were transferred into a chamber containing the oxygenated aCSF and were incubated at 33° C. for 2 h in the presence or absence of 1 mM, β-N ? methylamino-L-alanine (BMAA) dissolved in 10 mM NaHCO3 (Sigma). The oxygenation of the aCSF was carried out by bubbling the solution with a mixture of 95% O2 and 5% CO2 during the entire procedure. At the end of incubation, the brain slices were homogenized with homogenizing buffer [50 mM Tris·HCl (pH 7.4), 8.5% (wt/vol) sucrose, 2 mM EDTA, 2 mM EGTA, 10 mM (3-mercaptoethanol, 5 mM benzamidine, 0.5 mM 4-(2-Aminoethyl) benzenesulfonyl fluoride hydrochloride (AEBSF), 4 μg/mL pepstatin A, and 10 μg/mL each of aprotinin and leupepin] at a ratio of 9.0 mL buffer/1.0 g tissue slices. The homogenates were divided into two parts. One part was centrifuged at 16,000×g for 10 min, and the resulting supernatant was used to assay protein phosphatase 2A (PP2A) activity. Into the other half, an equal volume of phosphatase-inhibitor mixture (20 mM 3-glycerophosphate, 2 mM Na3VO4, and 100 mM NaF) was added immediately, and the samples were used for Western blots.
Protein was fractionated by 10% SDS/PAGE, transferred to PVDF membrane, and then blocked with 5% skim milk for 1 h at room temperature. […] The protein bands were detected with the enhanced chemiluminescence reagents (Thermo Scientific). Band intensity was measured by Multi-Gauge V3 software (Fuji Photo Film).

CNC[C@H](N)C(=O)O [BMAA, β-N-methylamino-L-alanine]
no significant changes: level of I1PP2A | level of I2PP2A | level of Leu309 demethylated PP2A
